The other results are listed elsewhere or left out.
Key:
Test in all cases: glycan array binding signal (z-score within array); higher = stronger binding
Settings in all cases: glycan notation: IUPAC condensed, linker removed
[1] = target: Gal(b1-4)GlcNAc(b1-2)Man(a1-3)[Gal(b1-4)GlcNAc(b1-2)Man(a1-6)]Man(b1-4)GlcNAc(b1-4)[Fuc(a1-6)]GlcNAc
In short: (§1)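 Glycan array data came from 3228 arrays in the Consortium for Functional Glycomics database, and only arrays with an available protein sequence were kept. Glycan names were put into IUPAC-condensed notation, and columns mapping to the same glycan were averaged. The binding signal is a within-array Z-score, averaged across arrays of one protein sequence run at different concentrations or buffers and across linkers. A negative Z-score can be read as non-binding.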

[2] = target: Gal(b1-4)GlcNAc(b1-2)Man(a1-3)[Gal(b1-4)GlcNAc(b1-2)Man(a1-6)][Gal(b1-4)GlcNAc(b1-4)]Man(b1-4)GlcNAc(b1-4)[Fuc(a1-6)]GlcNAc
In short: as §1

[3] = target: Gal(b1-4)GlcNAc(b1-2)Man(a1-3)[Gal(b1-4)GlcNAc(b1-2)Man(a1-6)][GlcNAc(b1-4)]Man(b1-4)GlcNAc(b1-4)[Fuc(a1-6)]GlcNAc
In short: as §1

[4] = target: Gal(b1-4)GlcNAc(b1-2)Man(a1-3)[GlcNAc(b1-2)Man(a1-6)]Man(b1-4)GlcNAc(b1-4)GlcNAc
In short: as §1

[5] = target: Gal(b1-4)GlcNAc(b1-2)Man(a1-3)[GlcNAc(b1-4)][Gal(b1-4)GlcNAc(b1-2)Man(a1-6)]Man(b1-4)GlcNAc(b1-4)GlcNAc
In short: as §1

[6] = target: Gal(b1-4)GlcNAc(b1-2)Man(a1-3)[Man(a1-6)]Man(b1-4)GlcNAc(b1-4)GlcNAc
In short: as §1

[7] = target: Gal(b1-4)GlcNAc(b1-2)Man(a1-6)Man(b1-4)GlcNAc(b1-4)GlcNAc
In short: as §1

[8] = target: Gal(b1-4)GlcNAc(b1-2)Man(a1-6)[GlcNAc(b1-2)Man(a1-3)]Man(b1-4)GlcNAc(b1-4)GlcNAc
In short: as §1

[9] = target: Gal(b1-4)GlcNAc(b1-2)Man(a1-6)[Man(a1-3)]Man(b1-4)GlcNAc(b1-4)GlcNAc
In short: as §1

[10] = target: Gal(b1-4)GlcNAc(b1-2)[Gal(b1-4)GlcNAc(b1-4)]Man(a1-3)[Gal(b1-4)GlcNAc(b1-2)Man(a1-6)]Man(b1-4)GlcNAc(b1-4)GlcNAc
In short: as §1

[11] = target: Gal(b1-4)GlcNAc(b1-2)[Gal(b1-4)GlcNAc(b1-4)]Man(a1-3)[Gal(b1-4)GlcNAc(b1-2)[Gal(b1-4)GlcNAc(b1-6)]Man(a1-6)]Man(b1-4)GlcNAc(b1-4)GlcNAc
In short: as §1

[12] = target: Gal(b1-4)GlcNAc(b1-2)[Gal(b1-4)GlcNAc(b1-4)]Man(a1-3)[GlcNAc(b1-4)][Gal(b1-4)GlcNAc(b1-2)Man(a1-6)]Man(b1-4)GlcNAc(b1-4)GlcNAc
In short: as §1

[13] = target: Gal(b1-4)GlcNAc(b1-2)[Gal(b1-4)GlcNAc(b1-4)]Man(a1-3)[GlcNAc(b1-4)][Gal(b1-4)GlcNAc(b1-2)[Gal(b1-4)GlcNAc(b1-6)]Man(a1-6)]Man(b1-4)GlcNAc(b1-4)GlcNAc
In short: as §1

[14] = target: Gal(b1-4)GlcNAc(b1-2)[Gal(b1-4)GlcNAc(b1-6)]Man(a1-6)[Gal(b1-4)GlcNAc(b1-2)Man(a1-3)]Man(b1-4)GlcNAc(b1-4)GlcNAc
In short: as §1

[15] = target: Gal(b1-4)GlcNAc(b1-2)[Gal(b1-4)GlcNAc(b1-6)]Man(a1-6)[Gal(b1-4)GlcNAc(b1-2)Man(a1-3)]Man(b1-4)GlcNAc(b1-4)[Fuc(a1-6)]GlcNAc
In short: as §1

[16] = target: Gal(b1-4)GlcNAc(b1-2)[Gal(b1-4)GlcNAc(b1-6)]Man(a1-6)[GlcNAc(b1-4)][Gal(b1-4)GlcNAc(b1-2)Man(a1-3)]Man(b1-4)GlcNAc(b1-4)GlcNAc
In short: as §1

[17] = target: Gal(b1-4)GlcNAc(b1-2)[Gal(b1-4)GlcNAc(b1-6)]Man(a1-6)[GlcNAc(b1-4)][Gal(b1-4)GlcNAc(b1-2)[Gal(b1-4)GlcNAc(b1-4)]Man(a1-3)]Man(b1-4)GlcNAc(b1-4)[Fuc(a1-6)]GlcNAc
In short: as §1

[18] = target: Gal(b1-4)GlcNAc(b1-3)Gal(b1-3)GalNAc
In short: as §1

[19] = target: Gal(b1-4)GlcNAc(b1-3)Gal(b1-3)GlcNAc
In short: as §1

B1: SspB C123 (Streptococcus gordonii), Q54186 (protein)
chain: MAHFHYSSLLAQPQINKEIKNEDGVDIDRTLVAKQSIGKFELKTEALTAGRPKTTSFVLVDPLPTGYKFDLDATKAASTGFDTTYDEASHTVTFKATDETLATYNADLTKPVETLHPTVVGRVLNDGATYTNNFTLTVNDAYGIKSNVVRVTTPGKPNDPDNPNNNYIKPTKVNKNKEGLNIDGKEVLAGSTNYYELTWDLDQYKGDKSSKEAIQNGFYYVDDYPEEALDVRPDLVKVADEKGNQVSGVSVQQYDSLEAAPKKVQDLLKKANITVKGAFQLFSADNPEEFYKQYVSTGTSLVITDPMTVKSEFGKTGGKYENKAYQIDFGNGYATEVVVNNVPKITPKKDVTVSLDPTSENLDGQTVQLYQTFNYRLIGGFIPQNHSEELEDYSFVDDYDQAGDQYTGNYKTFSSLNLTMKDGSVIKAGTDLTSQTTAETDATNGIVTVRFKEDFLQKISLDSPFQAETYLQMRRIAIGTFENTYVNTVNKVAYASAAALEHHHHHH
**Q.** How did the “glycan array binding signal (z-score)” value [1] turn out when B1 was run?
**A.** -1.01

**Q.** And the “glycan array binding signal (z-score)” value [2]?
**A.** -0.319

**Q.** And the “glycan array binding signal (z-score)” value [3]?
**A.** -0.815

**Q.** What about the “glycan array binding signal (z-score)” value [4] of the same binder?
**A.** 1.68

**Q.** What about the “glycan array binding signal (z-score)” value [5] of the same binder?
**A.** -0.619

**Q.** And the “glycan array binding signal (z-score)” value [6]?
**A.** 0.338

**Q.** What about the “glycan array binding signal (z-score)” value [7] of the same binder?
**A.** -0.895

**Q.** And the “glycan array binding signal (z-score)” value [8]?
**A.** 0.023

**Q.** What about the “glycan array binding signal (z-score)” value [9] of the same binder?
**A.** 0.942

**Q.** What about the “glycan array binding signal (z-score)” value [10] of the same binder?
**A.** 1.41

**Q.** What about the “glycan array binding signal (z-score)” value [11] of the same binder?
**A.** -0.541

**Q.** And the “glycan array binding signal (z-score)” value [12]?
**A.** -0.114

**Q.** And the “glycan array binding signal (z-score)” value [13]?
**A.** -0.188

**Q.** What about the “glycan array binding signal (z-score)” value [14] of the same binder?
**A.** 0.076

**Q.** What about the “glycan array binding signal (z-score)” value [15] of the same binder?
**A.** 0.366

**Q.** And the “glycan array binding signal (z-score)” value [16]?
**A.** 0.477

**Q.** What about the “glycan array binding signal (z-score)” value [17] of the same binder?
**A.** -0.17

**Q.** And the “glycan array binding signal (z-score)” value [18]?
**A.** -0.069

**Q.** What about the “glycan array binding signal (z-score)” value [19] of the same binder?
**A.** 1.37
